Data reported in PMC6953056.
Results are given in words; binding and its absence hold for the method and conditions named. In cells and extracts the contact can be indirect. Some results given as binding are weak or reduced against the parent protein; the word gives no strength. For some of these results: Where a sequence is shown, tags or fusion partners need not be part of it.

Protein sequences, listed by entry. Tags and fused reporters are not part of them. Lines headed by an entry give the natural chain unless they say otherwise; changes in a name come on top.
UniProt Q14587: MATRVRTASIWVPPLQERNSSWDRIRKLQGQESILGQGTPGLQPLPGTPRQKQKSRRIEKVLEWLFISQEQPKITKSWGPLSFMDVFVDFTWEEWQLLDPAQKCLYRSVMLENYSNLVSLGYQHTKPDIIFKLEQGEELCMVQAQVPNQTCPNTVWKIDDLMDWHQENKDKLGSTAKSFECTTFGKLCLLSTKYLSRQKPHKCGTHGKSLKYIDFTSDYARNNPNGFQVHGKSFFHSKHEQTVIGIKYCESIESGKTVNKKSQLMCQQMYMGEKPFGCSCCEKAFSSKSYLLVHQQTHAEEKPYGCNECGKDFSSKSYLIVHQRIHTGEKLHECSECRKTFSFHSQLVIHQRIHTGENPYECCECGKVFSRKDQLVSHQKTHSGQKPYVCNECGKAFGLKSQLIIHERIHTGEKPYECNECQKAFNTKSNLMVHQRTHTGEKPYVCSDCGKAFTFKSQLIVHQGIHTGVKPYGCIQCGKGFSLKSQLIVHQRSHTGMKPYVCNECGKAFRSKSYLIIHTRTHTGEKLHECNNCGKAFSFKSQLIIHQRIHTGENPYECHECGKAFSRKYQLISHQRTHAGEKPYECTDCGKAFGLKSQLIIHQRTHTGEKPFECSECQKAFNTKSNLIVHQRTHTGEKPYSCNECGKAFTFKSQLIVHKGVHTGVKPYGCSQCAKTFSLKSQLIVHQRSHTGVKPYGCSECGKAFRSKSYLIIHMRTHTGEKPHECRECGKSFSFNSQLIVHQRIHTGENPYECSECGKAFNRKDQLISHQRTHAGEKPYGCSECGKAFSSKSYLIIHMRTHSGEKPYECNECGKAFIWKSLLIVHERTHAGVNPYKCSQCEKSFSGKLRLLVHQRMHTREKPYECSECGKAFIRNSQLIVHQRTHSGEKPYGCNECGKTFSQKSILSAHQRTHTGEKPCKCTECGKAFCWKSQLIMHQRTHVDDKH
UniProt Q9Y6K9: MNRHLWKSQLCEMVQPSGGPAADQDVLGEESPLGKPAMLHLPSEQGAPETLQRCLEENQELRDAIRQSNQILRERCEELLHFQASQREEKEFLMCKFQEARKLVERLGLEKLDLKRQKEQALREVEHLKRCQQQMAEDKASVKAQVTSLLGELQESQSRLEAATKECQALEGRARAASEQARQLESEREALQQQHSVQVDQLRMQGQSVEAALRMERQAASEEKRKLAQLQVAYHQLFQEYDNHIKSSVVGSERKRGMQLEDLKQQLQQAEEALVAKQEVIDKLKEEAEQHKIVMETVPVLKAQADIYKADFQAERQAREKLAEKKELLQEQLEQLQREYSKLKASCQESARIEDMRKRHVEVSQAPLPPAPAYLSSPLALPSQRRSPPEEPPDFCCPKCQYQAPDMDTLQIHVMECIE

Columns and labels:
[1] = molecular target: flag-tagged ZNF268a (full length) (UniProt Q14587); test: co-IP; HEK293T transfected with the tagged constructs for 24 h; lysis in 20 mM Tris-HCl pH 7.4, 150 mM NaCl, 10% glycerol, 1% NP-40; immunoprecipitation with anti-flag antibody on Dynabeads Protein G at 4 °C overnight; blot with anti-HA or anti-Myc
[2] = molecular target: T1, endogenous IKKα (human (endogenous in HEK293T)) (UniProt O15111); test: co-IP; endogenous proteins, HEK293T with or without SeV infection; immunoprecipitation with anti-IKKα antibody (normal IgG as control)
T1 sequence: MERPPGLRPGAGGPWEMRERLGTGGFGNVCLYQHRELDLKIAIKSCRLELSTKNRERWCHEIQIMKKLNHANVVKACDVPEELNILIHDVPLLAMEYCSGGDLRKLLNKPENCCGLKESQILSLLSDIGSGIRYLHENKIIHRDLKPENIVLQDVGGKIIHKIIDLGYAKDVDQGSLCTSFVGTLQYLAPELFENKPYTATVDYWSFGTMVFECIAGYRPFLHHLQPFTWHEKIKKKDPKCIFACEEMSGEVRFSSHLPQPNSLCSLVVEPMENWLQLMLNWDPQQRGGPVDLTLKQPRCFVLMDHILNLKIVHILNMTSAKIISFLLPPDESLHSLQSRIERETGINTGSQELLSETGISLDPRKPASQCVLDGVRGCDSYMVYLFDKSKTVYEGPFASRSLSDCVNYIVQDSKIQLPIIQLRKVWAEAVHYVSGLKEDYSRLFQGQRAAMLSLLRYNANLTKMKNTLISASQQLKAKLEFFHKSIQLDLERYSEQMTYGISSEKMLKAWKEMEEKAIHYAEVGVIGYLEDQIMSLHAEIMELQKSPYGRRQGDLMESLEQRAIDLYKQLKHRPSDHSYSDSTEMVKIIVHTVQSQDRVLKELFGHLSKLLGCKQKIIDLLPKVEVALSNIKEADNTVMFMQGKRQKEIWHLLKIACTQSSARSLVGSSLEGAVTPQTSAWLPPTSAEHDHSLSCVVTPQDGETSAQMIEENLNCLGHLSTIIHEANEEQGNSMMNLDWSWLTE

[3] = molecular target: T2, HA-tagged IKKα (UniProt O15111); test: co-IP; HEK293T transfected with the tagged constructs; same lysis buffer; immunoprecipitation with anti-HA or anti-Myc antibody; blot with anti-flag
T2 sequence: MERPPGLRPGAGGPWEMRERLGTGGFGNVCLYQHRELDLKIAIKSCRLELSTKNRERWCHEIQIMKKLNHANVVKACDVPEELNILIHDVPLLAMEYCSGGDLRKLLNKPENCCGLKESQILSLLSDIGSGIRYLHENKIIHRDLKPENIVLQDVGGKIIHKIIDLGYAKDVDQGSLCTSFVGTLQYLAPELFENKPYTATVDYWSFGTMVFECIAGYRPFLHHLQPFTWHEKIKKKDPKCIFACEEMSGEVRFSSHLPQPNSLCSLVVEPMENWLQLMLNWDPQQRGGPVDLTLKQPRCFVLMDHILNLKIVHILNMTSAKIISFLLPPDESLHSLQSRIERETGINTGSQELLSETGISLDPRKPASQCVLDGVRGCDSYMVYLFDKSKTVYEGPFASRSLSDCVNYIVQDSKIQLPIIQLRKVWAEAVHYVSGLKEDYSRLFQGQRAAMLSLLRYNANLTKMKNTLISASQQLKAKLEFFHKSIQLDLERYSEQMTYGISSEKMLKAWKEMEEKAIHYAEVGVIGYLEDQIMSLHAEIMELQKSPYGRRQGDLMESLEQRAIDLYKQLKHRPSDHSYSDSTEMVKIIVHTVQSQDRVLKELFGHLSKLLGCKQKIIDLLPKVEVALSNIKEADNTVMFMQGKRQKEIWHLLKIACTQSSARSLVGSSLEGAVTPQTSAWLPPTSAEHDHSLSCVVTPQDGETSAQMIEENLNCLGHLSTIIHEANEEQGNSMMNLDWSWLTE

[4] = molecular target: HA-tagged NEMO (UniProt Q9Y6K9); test: as above
[5] = molecular target: T3, HA-tagged IKKα Kinase domain (KD) (UniProt O15111); test: as above
T3 sequence: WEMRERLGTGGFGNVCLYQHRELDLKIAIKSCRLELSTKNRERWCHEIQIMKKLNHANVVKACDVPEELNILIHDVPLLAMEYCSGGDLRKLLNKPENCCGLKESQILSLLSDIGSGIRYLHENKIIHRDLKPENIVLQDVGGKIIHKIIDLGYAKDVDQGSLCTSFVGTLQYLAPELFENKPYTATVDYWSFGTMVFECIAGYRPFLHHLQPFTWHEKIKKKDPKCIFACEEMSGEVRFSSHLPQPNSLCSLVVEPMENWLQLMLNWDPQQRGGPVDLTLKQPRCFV

[6] = molecular target: T1, endogenous IKKα (human (endogenous in HEK293T)); test: co-IP; endogenous proteins, wild-type and ZNF268a-knockout HEK293T; endogenous IKKα immunoprecipitated; endogenous IKKβ or NEMO blotted
[7] = molecular target: T4, flag-tagged IKKα (UniProt O15111); test: co-IP; wild-type and ZNF268a-knockout HEK293T co-transfected with tagged IKKα and Myc-IKKβ or HA-NEMO; exogenous IKKα immunoprecipitated; partner blotted
T4 sequence: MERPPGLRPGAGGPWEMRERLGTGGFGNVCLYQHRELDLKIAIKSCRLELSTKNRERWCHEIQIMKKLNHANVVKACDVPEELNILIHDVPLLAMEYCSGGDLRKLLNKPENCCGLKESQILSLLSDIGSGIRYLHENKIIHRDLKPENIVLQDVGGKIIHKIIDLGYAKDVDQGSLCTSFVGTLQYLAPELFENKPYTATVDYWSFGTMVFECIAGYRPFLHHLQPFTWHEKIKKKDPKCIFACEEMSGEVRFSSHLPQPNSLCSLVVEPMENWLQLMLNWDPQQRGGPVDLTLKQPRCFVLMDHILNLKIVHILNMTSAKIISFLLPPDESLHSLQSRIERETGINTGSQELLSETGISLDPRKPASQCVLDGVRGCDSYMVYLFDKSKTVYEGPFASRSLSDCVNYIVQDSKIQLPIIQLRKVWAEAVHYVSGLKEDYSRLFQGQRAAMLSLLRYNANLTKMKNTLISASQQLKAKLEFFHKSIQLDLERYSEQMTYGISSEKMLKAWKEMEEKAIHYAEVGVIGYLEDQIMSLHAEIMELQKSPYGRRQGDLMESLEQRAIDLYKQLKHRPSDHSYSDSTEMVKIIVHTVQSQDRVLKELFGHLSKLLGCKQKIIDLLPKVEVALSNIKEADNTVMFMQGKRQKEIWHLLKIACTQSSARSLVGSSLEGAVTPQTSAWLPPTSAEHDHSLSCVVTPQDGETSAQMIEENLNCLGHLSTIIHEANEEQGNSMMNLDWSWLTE

**Q.** For “HA-tagged NEMO (from UniProt Q9Y6K9 1-419)”, which binding [1] is on record?
**A.** The binding was “no binding”.

**Q.** Which binding [2] does the source give for “endogenous ZNF268a (from UniProt Q14587-1 1-947)” here?
**A.** The binding was “binds”.

**Q.** What does the source list for “flag-tagged ZNF268a (full length) (from UniProt Q14587-1 1-947)”?
**A.** binding [3]: binds; binding [4]: no binding; binding [5]: no binding

B1: endogenous IKKβ (protein, UniProt O14920 1-756)
chain: MSWSPSLTTQTCGAWEMKERLGTGGFGNVIRWHNQETGEQIAIKQCRQELSPRNRERWCLEIQIMRRLTHPNVVAARDVPEGMQNLAPNDLPLLAMEYCQGGDLRKYLNQFENCCGLREGAILTLLSDIASALRYLHENRIIHRDLKPENIVLQQGEQRLIHKIIDLGYAKELDQGSLCTSFVGTLQYLAPELLEQQKYTVTVDYWSFGTLAFECITGFRPFLPNWQPVQWHSKVRQKSEVDIVVSEDLNGTVKFSSSLPYPNNLNSVLAERLEKWLQLMLMWHPRQRGTDPTYGPNGCFKALDDILNLKLVHILNMVTGTIHTYPVTEDESLQSLKARIQQDTGIPEEDQELLQEAGLALIPDKPATQCISDGKLNEGHTLDMDLVFLFDNSKITYETQISPRPQPESVSCILQEPKRNLAFFQLRKVWGQVWHSIQTLKEDCNRLQQGQRAAMMNLLRNNSCLSKMKNSMASMSQQLKAKLDFFKTSIQIDLEKYSEQTEFGITSDKLLLAWREMEQAVELCGRENEVKLLVERMMALQTDIVDLQRSPMGRKQGGTLDDLEEQARELYRRLREKPRDQRTEGDSQEMVRLLLQAIQSFEKKVRVIYTQLSKTVVCKQKALELLPKVEEVVSLMNEDEKTVVRLQEKRQKELWNLLKIACSKVRGPVSGSPDSMNASRLSQPGQLMSQPSTASNSLPEPAKKSEELVAEAHNLCTLLENAIQDTVREQDQSFTALDWSWLQTEEEEHSCLEQAS
**Q.** Which binding [6] does the source give for B1 here?
**A.** The binding was “binds”.

B2: Myc-tagged IKKβ (protein, UniProt O14920 1-756)
chain: MSWSPSLTTQTCGAWEMKERLGTGGFGNVIRWHNQETGEQIAIKQCRQELSPRNRERWCLEIQIMRRLTHPNVVAARDVPEGMQNLAPNDLPLLAMEYCQGGDLRKYLNQFENCCGLREGAILTLLSDIASALRYLHENRIIHRDLKPENIVLQQGEQRLIHKIIDLGYAKELDQGSLCTSFVGTLQYLAPELLEQQKYTVTVDYWSFGTLAFECITGFRPFLPNWQPVQWHSKVRQKSEVDIVVSEDLNGTVKFSSSLPYPNNLNSVLAERLEKWLQLMLMWHPRQRGTDPTYGPNGCFKALDDILNLKLVHILNMVTGTIHTYPVTEDESLQSLKARIQQDTGIPEEDQELLQEAGLALIPDKPATQCISDGKLNEGHTLDMDLVFLFDNSKITYETQISPRPQPESVSCILQEPKRNLAFFQLRKVWGQVWHSIQTLKEDCNRLQQGQRAAMMNLLRNNSCLSKMKNSMASMSQQLKAKLDFFKTSIQIDLEKYSEQTEFGITSDKLLLAWREMEQAVELCGRENEVKLLVERMMALQTDIVDLQRSPMGRKQGGTLDDLEEQARELYRRLREKPRDQRTEGDSQEMVRLLLQAIQSFEKKVRVIYTQLSKTVVCKQKALELLPKVEEVVSLMNEDEKTVVRLQEKRQKELWNLLKIACSKVRGPVSGSPDSMNASRLSQPGQLMSQPSTASNSLPEPAKKSEELVAEAHNLCTLLENAIQDTVREQDQSFTALDWSWLQTEEEEHSCLEQAS
**Q.** Which binding [7] does the source give for B2 here?
**A.** Its binding is “binds”.
